Data taken from patent US5880284A, “Cyclic urea derivatives, pharmaceutical compositions containing these compounds and processes for preparing them” (Dr. Karl Thomae GmbH, priority 1992, dated 1999).
For at least one compound, name, drawing or mass did not settle the structure.

Target: human thrombocytes
Assay: Inhibition of binding of 3H-BIBU 52 to human thrombocytes (fibrinogen-binding test)
Conditions: 3H-BIBU 52 final concentration 5 nM, plasma, 20 minutes, ambient temperature; 50% inhibition of binding

Cc1nn(-c2ccc(C(=N)N)cc2)c(=O)n1[C@H]1CC[C@@H](CCC(=O)O)CC1 [Example 4, 2-(4-Amidinophenyl)-4-[cis-4-(2-carboxyethyl)cyclo-hexyl]-5-methyl-4H-1,2,4-triazol-3-one]
IC50: 94 nM
